Values of other authors in article PMC3052287 (Psychopharmacology, 2010).

Chains of the proteins cited; added tags and fusions are not shown.
UniProt P34969, whole entry: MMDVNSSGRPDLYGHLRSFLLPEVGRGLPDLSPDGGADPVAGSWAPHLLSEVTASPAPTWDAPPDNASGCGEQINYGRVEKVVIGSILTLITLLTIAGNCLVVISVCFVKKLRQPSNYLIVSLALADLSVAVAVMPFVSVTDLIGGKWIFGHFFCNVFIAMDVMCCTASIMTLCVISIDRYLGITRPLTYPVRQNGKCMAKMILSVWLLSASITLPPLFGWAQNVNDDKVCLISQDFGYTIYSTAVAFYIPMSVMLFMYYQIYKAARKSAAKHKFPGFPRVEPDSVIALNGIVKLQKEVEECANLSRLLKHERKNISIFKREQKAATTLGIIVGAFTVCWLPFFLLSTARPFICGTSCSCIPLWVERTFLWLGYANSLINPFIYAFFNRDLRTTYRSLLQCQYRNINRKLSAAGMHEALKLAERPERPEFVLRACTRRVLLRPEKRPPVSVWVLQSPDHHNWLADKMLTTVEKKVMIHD

Target: h5-HT7 receptor (Homo sapiens, UniProt P34969)
Conditions: cited from earlier work

CCN(CC)C(=O)N[C@H]1C=C2c3cccc4[nH]cc(c34)C[C@H]2N(C)C1 [lisuride]
inactivation of the h5-HT7 receptor (loss of 5-HT-stimulated cAMP accumulation): inactivate the h5-HT7 receptor
